Data published in the supplement of paper PMC8728848.
The other results are listed elsewhere or left out.

Legend:
Assay in all cases: glycan array binding signal (z-score within array); higher = stronger binding
Conditions in all cases: glycan notation: IUPAC condensed, linker removed
GlcNAc(b1-4)GlcNAc = biological target: GlcNAc(b1-4)GlcNAc
In short: (§1)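 Glycan array data were curated from 3228 arrays in the Consortium for Functional Glycomics database and kept only where the protein sequence was available. Glycan names were converted to IUPAC-condensed notation, and columns mapping to the same glycan were averaged. The binding signal is a within-array Z-score, averaged across arrays of the same protein sequence at different concentrations or buffers and across linkers. Negative Z-scores can be read as non-binding.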

[1] = biological target: GlcNAc(b1-4)GlcNAc(b1-4)GlcNAc
In short: as §1

[2] = biological target: GlcNAc(b1-4)GlcNAc(b1-4)GlcNAc(b1-4)GlcNAc(b1-4)GlcNAc
In short: as §1

[3] = biological target: GlcNAc(b1-4)GlcNAc(b1-4)GlcNAc(b1-4)GlcNAc(b1-4)GlcNAc(b1-4)GlcNAc
In short: as §1

[4] = biological target: GlcNAc(b1-4)[GlcNAc(b1-6)]GalNAc
In short: as §1

[5] = biological target: GlcNAc(b1-6)Gal(b1-4)GlcNAc
In short: as §1

GlcNAc(b1-6)GalNAc = biological target: GlcNAc(b1-6)GalNAc
In short: as §1

GlcNAc3Prop(b1-4)GlcNAc = biological target: GlcNAc3Prop(b1-4)GlcNAc
In short: as §1

[6] = biological target: GlcNAc6S(b1-3)Gal(b1-4)GlcNAc
In short: as §1

Kdn(a2-3)Gal(b1-3)GalNAc = biological target: Kdn(a2-3)Gal(b1-3)GalNAc
In short: as §1

Kdn(a2-3)Gal(b1-3)GlcNAc = biological target: Kdn(a2-3)Gal(b1-3)GlcNAc
In short: as §1

Kdn(a2-3)Gal(b1-4)Glc = biological target: Kdn(a2-3)Gal(b1-4)Glc
In short: as §1

Kdn(a2-3)Gal(b1-4)GlcNAc = biological target: Kdn(a2-3)Gal(b1-4)GlcNAc
In short: as §1

[7] = biological target: Kdn(a2-3)Gal(b1-4)[Fuc(a1-3)]GlcNAc
In short: as §1

Kdn(a2-6)Gal(b1-4)GlcNAc = biological target: Kdn(a2-6)Gal(b1-4)GlcNAc
In short: as §1

[8] = biological target: Man(a1-2)Man(a1-2)Man(a1-3)Man
In short: as §1

[9] = biological target: Man(a1-2)Man(a1-2)Man(a1-6)[Man(a1-3)]Man
In short: as §1

Man(a1-2)Man(a1-3)Man = biological target: Man(a1-2)Man(a1-3)Man
In short: as §1

[10] = biological target: Man(a1-2)Man(a1-3)[Man(a1-2)Man(a1-6)]Man
In short: as §1

[11] = biological target: Man(a1-2)Man(a1-3)[Man(a1-2)Man(a1-6)]Man(a1-6)[Man(a1-2)Man(a1-2)Man(a1-3)]Man
In short: as §1

[12] = biological target: Man(a1-2)Man(a1-3)[Man(a1-2)Man(a1-6)]Man(a1-6)[Man(a1-2)Man(a1-2)Man(a1-3)]Man(b1-4)GlcNAc(b1-4)GlcNAc
In short: as §1

[13] = biological target: Man(a1-2)Man(a1-3)[Man(a1-6)]Man(a1-6)[Man(a1-2)Man(a1-3)]Man(b1-4)GlcNAc(b1-4)GlcNAc
In short: as §1

[14] = biological target: Man(a1-2)Man(a1-6)[Man(a1-3)]Man(a1-6)[Man(a1-2)Man(a1-2)Man(a1-3)]Man
In short: as §1

[15] = biological target: Man(a1-2)Man(a1-6)[Man(a1-3)]Man(a1-6)[Man(a1-2)Man(a1-2)Man(a1-3)]Man(b1-4)GlcNAc(b1-4)GlcNAc
In short: as §1

Man(a1-3)[Man(a1-6)]Man = biological target: Man(a1-3)[Man(a1-6)]Man
In short: as §1

[16] = biological target: Man(a1-3)[Man(a1-6)]Man(a1-6)[Man(a1-2)Man(a1-3)]Man(b1-4)GlcNAc(b1-4)GlcNAc
In short: as §1

[17] = biological target: Man(a1-3)[Man(a1-6)]Man(a1-6)[Man(a1-3)]Man
In short: as §1

[18] = biological target: Man(a1-3)[Man(a1-6)]Man(a1-6)[Man(a1-3)]Man(b1-4)GlcNAc(b1-4)GlcNAc
In short: as §1

[19] = biological target: Man(a1-3)[Man(a1-6)]Man(b1-4)GlcNAc(b1-4)GlcNAc
In short: as §1

[20] = biological target: Man(a1-3)[Man(a1-6)]Man(b1-4)GlcNAc(b1-4)[Fuc(a1-6)]GlcNAc
In short: as §1

Man(a1-6)Man = biological target: Man(a1-6)Man
In short: as §1

Man(b1-4)GlcNAc = biological target: Man(b1-4)GlcNAc
In short: as §1

MurNAc(b1-4)GlcNAc = biological target: MurNAc(b1-4)GlcNAc
In short: as §1

Neu5Ac(a2-3)Gal = biological target: Neu5Ac(a2-3)Gal
In short: as §1

[21] = biological target: Neu5Ac(a2-3)Gal(b1-3)GalNAc
In short: as §1

[22] = biological target: Neu5Ac(a2-3)Gal(b1-3)GalNAc(b1-3)Gal(a1-4)Gal(b1-4)Glc
In short: as §1

[23] = biological target: Neu5Ac(a2-3)Gal(b1-3)GalNAc(b1-4)Gal(b1-4)Glc
In short: as §1

B1: GST-Gap1 (Streptococcus parasanguinis), A1C3L5 (protein)
chain: MFYFVPSWYNGQRQWYYDTPWWFRVKNRMTFDDSVNQVKMFLQGQEEIGLMILNYQPQLRYFLHKQNIFGIYYWSFFDDIQNITRSYTKIIHLKDLNWPEGCEFLYSPFAVVVRLKGEIFAIVNYAEDGNLHSVSFQKNGKVTKDYIFDDRGFLSSILYYDIDERPLYQDYLNINGVWQVREFLKKENDPTPILMINDFSDQTFSKKYYNGWEELIKERLAIFQNNHVENEDVFVLASDTQHNQLVSSIFKEHRKIYSFFGNRFNLENLGQDRISINDATFLVVDTEKNEELLRKTCENLVFKSIPIVRLSPFDSRLRLGHSQTVKEQIIYFHIDNIELDELYSVIAIILELMTLHLDIELRIVTFRQDFQLDLLKTWIIDFIKTNHFEDLLFKQISEGENEIEDEGEIELSRIAMECFTNENQIIKCLDTARLVIDLGIEPDLYTQIASISAGIPQINRVSSDYVIHQKNGLVISDISKLSSAIEFYFDGLFNWNEALIYAVRKMSDYTSGKILKQWKGMLKKK
glycan array binding signal (z-score) (GlcNAc(b1-4)GlcNAc): -0.323 | glycan array binding signal (z-score) [1]: -0.14 | glycan array binding signal (z-score) [2]: 0.363 | glycan array binding signal (z-score) [3]: -0.206 | glycan array binding signal (z-score) [4]: -0.353 | glycan array binding signal (z-score) [5]: 0.478 | glycan array binding signal (z-score) (GlcNAc(b1-6)GalNAc): -0.423 | glycan array binding signal (z-score) (GlcNAc3Prop(b1-4)GlcNAc): -0.216 | glycan array binding signal (z-score) [6]: -0.181 | glycan array binding signal (z-score) (Kdn(a2-3)Gal(b1-3)GalNAc): -0.383 | glycan array binding signal (z-score) (Kdn(a2-3)Gal(b1-3)GlcNAc): -0.28 | glycan array binding signal (z-score) (Kdn(a2-3)Gal(b1-4)Glc): -0.979 | glycan array binding signal (z-score) (Kdn(a2-3)Gal(b1-4)GlcNAc): -0.084 | glycan array binding signal (z-score) [7]: -0.408 | glycan array binding signal (z-score) (Kdn(a2-6)Gal(b1-4)GlcNAc): -0.034 | glycan array binding signal (z-score) [8]: -0.034 | glycan array binding signal (z-score) [9]: 0.165 | glycan array binding signal (z-score) (Man(a1-2)Man(a1-3)Man): 0.075 | glycan array binding signal (z-score) [10]: -0.526 | glycan array binding signal (z-score) [11]: -0.183 | glycan array binding signal (z-score) [12]: -0.397 | glycan array binding signal (z-score) [13]: -0.38 | glycan array binding signal (z-score) [14]: -0.089 | glycan array binding signal (z-score) [15]: 0.949 | glycan array binding signal (z-score) (Man(a1-3)[Man(a1-6)]Man): -0.075 | glycan array binding signal (z-score) [16]: -0.26 | glycan array binding signal (z-score) [17]: -0.551 | glycan array binding signal (z-score) [18]: -0.833 | glycan array binding signal (z-score) [19]: -0.02 | glycan array binding signal (z-score) [20]: -0.278 | glycan array binding signal (z-score) (Man(a1-6)Man): -0.434 | glycan array binding signal (z-score) (Man(b1-4)GlcNAc): 0.1 | glycan array binding signal (z-score) (MurNAc(b1-4)GlcNAc): -0.969 | glycan array binding signal (z-score) (Neu5Ac(a2-3)Gal): -0.63 | glycan array binding signal (z-score) [21]: -0.131 | glycan array binding signal (z-score) [22]: -0.09 | glycan array binding signal (z-score) [23]: -1.17
